Construct, isoform or probe ends are uncertain for at least one entry. Results from cells or extracts need not show a direct contact. For part of these data: Negatives hold for the conditions tested. For part of these data: At least one verdict was read from the data and is not stated in words by the source.
How the values were obtained:
mCherry-HuR [1] = target: mCherry-HuR (UniProt Q15717); assay: RP-CONA bead pull-down, fluorescence; settings: Covalent pull-down: HeLa extract, beads washed with 2 M KCl, Buffer G (20 mM Tris-HCl pH 7.5, 137 mM NaCl, 1.5 mM MgCl2) and Roeder D, protein in a lysate after overexpression, protein details: mCherry, label: 5' FITC, 3' biotin
[2] = target: MSI2 (endogenous) (human (HeLa)) (UniProt Q96DH6); assay: pull-down, SILAC mass spectrometry; settings: heavy HeLa extract, reduced by quercetin; 3' periodate-oxidized, coupled to adipic acid dihydrazide-agarose; Covalent pull-down: HeLa extract, beads washed with 2 M KCl, Buffer G (20 mM Tris-HCl pH 7.5, 137 mM NaCl, 1.5 mM MgCl2) and Roeder D; protein in an extract
[3] = target: HuR (endogenous) (human (HeLa)) (UniProt Q15717); assay: pull-down, western blot; settings: HeLa extract, reduced by 100 uM quercetin or luteolin; 3' periodate-oxidized, coupled to adipic acid dihydrazide-agarose; Covalent pull-down: HeLa extract, beads washed with 2 M KCl, Buffer G (20 mM Tris-HCl pH 7.5, 137 mM NaCl, 1.5 mM MgCl2) and Roeder D; protein in an extract
[4] = target: DHX9 (endogenous) (human (HeLa)) (UniProt Q08211); assay: pull-down, western blot; settings: HeLa extract, reduced by 100 uM gossypol; 3' periodate-oxidized, coupled to adipic acid dihydrazide-agarose; Covalent pull-down: HeLa extract, beads washed with 2 M KCl, Buffer G (20 mM Tris-HCl pH 7.5, 137 mM NaCl, 1.5 mM MgCl2) and Roeder D; protein in an extract
mCherry-HuR [5] = target: mCherry-HuR (UniProt Q15717); assay: competition (RP-CONA); settings: untagged competitor vs N1; RP-CONA: RNA coupled to His-streptavidin Ni-NTA beads in PBS, 0.01% Triton X-100, 4 C; HEK293T cell extract; protein in a lysate after overexpression; protein details: mCherry
Lin28a-GFP = assay: RP-CONA bead pull-down, fluorescence; settings: reduced by anti-Lin28a antibody; Covalent pull-down: HeLa extract, beads washed with 2 M KCl, Buffer G (20 mM Tris-HCl pH 7.5, 137 mM NaCl, 1.5 mM MgCl2) and Roeder D; protein in a lysate after overexpression; protein details: GFP (pEGFP-N1); label: 5' Cy5, 3' biotin

Protein sequences, listed by entry. Tags and fused reporters are not part of them. Lines headed by an entry give the natural chain unless they say otherwise; changes in a name come on top.
UniProt Q15717, whole entry: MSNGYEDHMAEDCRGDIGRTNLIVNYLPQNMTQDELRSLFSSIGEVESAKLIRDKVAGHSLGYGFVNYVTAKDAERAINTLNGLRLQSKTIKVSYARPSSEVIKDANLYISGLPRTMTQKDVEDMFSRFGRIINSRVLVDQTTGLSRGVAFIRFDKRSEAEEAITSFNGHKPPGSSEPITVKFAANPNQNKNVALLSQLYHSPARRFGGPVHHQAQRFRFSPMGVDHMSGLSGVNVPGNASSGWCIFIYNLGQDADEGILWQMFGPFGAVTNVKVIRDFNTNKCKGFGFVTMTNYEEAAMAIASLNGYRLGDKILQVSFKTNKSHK
UniProt Q96DH6: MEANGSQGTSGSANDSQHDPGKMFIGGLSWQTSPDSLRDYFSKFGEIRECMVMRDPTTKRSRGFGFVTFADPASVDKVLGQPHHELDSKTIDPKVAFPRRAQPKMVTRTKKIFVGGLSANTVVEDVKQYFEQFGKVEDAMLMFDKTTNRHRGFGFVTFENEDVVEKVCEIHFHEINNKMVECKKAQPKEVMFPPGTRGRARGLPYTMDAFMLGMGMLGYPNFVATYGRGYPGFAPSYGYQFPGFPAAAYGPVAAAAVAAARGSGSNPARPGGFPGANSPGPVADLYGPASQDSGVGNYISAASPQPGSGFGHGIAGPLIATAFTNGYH
UniProt Q08211, whole entry: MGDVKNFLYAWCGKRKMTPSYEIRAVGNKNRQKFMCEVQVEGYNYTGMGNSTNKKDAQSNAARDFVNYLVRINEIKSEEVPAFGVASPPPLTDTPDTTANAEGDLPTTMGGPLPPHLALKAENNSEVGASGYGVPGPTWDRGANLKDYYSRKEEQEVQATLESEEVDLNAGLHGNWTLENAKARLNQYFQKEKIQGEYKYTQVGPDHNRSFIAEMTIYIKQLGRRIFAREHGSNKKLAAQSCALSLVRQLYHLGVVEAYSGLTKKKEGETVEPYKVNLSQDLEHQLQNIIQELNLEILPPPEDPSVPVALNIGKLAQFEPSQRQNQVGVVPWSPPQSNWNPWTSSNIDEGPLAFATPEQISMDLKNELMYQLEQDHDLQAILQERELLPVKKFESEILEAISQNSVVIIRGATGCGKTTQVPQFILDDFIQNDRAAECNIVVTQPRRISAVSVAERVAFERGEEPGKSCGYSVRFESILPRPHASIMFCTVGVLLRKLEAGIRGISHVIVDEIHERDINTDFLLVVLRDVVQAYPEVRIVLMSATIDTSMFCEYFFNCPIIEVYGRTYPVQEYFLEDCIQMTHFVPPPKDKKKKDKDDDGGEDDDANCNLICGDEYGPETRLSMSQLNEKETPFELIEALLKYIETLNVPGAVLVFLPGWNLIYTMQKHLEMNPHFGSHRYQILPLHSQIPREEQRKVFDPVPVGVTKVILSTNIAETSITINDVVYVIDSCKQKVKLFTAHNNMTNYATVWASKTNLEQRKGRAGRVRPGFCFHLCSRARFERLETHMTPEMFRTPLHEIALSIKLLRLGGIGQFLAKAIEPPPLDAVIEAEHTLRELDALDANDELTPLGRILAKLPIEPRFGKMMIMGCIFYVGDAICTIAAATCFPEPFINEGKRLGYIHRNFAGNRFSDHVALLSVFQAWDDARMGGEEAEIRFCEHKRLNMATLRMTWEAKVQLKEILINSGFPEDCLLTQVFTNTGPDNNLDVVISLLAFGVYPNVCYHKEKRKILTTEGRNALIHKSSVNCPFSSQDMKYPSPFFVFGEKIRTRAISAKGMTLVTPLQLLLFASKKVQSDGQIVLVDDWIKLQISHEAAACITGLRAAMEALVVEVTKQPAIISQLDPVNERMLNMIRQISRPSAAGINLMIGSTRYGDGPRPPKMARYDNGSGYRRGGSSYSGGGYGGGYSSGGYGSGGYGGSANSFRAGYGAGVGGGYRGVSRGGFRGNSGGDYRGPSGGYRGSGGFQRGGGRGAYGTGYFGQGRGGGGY

Question: Does “AUUAUUUAUUAUUUAUUUAUUAUUUA [FITC-TNFα-ARE-bio]” bind (mCherry-HuR [1]; inhibited by quercetin)?
Answer: Result: binds

Question: Does “CUAAAUCCUCACUAUUUUUUUGUUGCUG [FITC-αSyn-ARE-bio]” bind (mCherry-HuR [1]; 50 nM mCherry-HuR, inhibited by high quercetin)?
Answer: Result: binds

Question: Does “UGUUGUUCUGUGAAGCCACAGAUGGGACAACAAA [FITC-pri-miR-7-1/30a-TL-bio]” bind (mCherry-HuR [1])?
Answer: Result: no binding

Question: Does “UGUUGUUUUUAGAUAACUAAAUCGACAACAAA [FITC-pri-miR-7-1-CTL-bio]” bind (mCherry-HuR [1]; inhibited by quercetin (inhibitor IC50 2.15 ± 0.16 uM) and luteolin (inhibitor IC50 2.03 ± 0.25 uM))?
Answer: Result: binds

Question: Which results are given for “UGUUGUUUUUAGAUAACUAAAUCGACAACAAA [pri-miR-7-1-CTL periodate-coupled]”?
Answer: binding result [2]: binds; binding result [3]: binds; binding result [4]: binds

Question: Does “UGUUGUUUUUAGAUAACUAAAUCGACAACAAA [pri-miR-7-1-CTL untagged]” bind (mCherry-HuR [5])?
Answer: Result: binds

Question: Does “UUAGGGUCACACCCACCACUGGGAGAU [Cy5-pre-let-7a-1-CTL-bio]” bind (Lin28a-GFP)?
Answer: Result: binds

— paper PMC8216281, “RNA pull-down confocal nanoscanning (RP-CONA) detects quercetin as pri-miR-7/HuR interaction inhibitor that decreases α-synuclein levels” (Nucleic Acids Research, 2021)
